# Reference: the supplement of paper PMC12823440, “Inhibitors supercharge kinase turnover through native proteolytic circuits” (Nature, 2025)
# Sequences of proteins named here, by UniProt entry; tags and fusion partners are left off. A change or cut given only in a name is not applied to a line headed by its entry.
# UniProt P06241, whole entry, looked up: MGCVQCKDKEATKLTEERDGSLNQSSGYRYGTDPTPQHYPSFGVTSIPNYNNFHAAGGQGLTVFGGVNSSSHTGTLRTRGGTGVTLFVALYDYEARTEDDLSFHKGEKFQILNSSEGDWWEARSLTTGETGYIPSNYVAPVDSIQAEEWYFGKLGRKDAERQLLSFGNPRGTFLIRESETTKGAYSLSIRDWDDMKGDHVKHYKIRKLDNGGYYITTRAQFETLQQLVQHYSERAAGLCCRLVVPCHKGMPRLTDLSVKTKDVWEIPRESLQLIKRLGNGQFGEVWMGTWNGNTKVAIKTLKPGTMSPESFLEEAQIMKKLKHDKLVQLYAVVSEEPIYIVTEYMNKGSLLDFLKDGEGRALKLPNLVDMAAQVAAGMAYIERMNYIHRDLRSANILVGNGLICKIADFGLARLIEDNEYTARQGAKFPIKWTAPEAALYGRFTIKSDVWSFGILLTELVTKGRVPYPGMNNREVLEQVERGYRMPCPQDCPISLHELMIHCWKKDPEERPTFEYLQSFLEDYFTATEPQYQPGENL
# UniProt P14616: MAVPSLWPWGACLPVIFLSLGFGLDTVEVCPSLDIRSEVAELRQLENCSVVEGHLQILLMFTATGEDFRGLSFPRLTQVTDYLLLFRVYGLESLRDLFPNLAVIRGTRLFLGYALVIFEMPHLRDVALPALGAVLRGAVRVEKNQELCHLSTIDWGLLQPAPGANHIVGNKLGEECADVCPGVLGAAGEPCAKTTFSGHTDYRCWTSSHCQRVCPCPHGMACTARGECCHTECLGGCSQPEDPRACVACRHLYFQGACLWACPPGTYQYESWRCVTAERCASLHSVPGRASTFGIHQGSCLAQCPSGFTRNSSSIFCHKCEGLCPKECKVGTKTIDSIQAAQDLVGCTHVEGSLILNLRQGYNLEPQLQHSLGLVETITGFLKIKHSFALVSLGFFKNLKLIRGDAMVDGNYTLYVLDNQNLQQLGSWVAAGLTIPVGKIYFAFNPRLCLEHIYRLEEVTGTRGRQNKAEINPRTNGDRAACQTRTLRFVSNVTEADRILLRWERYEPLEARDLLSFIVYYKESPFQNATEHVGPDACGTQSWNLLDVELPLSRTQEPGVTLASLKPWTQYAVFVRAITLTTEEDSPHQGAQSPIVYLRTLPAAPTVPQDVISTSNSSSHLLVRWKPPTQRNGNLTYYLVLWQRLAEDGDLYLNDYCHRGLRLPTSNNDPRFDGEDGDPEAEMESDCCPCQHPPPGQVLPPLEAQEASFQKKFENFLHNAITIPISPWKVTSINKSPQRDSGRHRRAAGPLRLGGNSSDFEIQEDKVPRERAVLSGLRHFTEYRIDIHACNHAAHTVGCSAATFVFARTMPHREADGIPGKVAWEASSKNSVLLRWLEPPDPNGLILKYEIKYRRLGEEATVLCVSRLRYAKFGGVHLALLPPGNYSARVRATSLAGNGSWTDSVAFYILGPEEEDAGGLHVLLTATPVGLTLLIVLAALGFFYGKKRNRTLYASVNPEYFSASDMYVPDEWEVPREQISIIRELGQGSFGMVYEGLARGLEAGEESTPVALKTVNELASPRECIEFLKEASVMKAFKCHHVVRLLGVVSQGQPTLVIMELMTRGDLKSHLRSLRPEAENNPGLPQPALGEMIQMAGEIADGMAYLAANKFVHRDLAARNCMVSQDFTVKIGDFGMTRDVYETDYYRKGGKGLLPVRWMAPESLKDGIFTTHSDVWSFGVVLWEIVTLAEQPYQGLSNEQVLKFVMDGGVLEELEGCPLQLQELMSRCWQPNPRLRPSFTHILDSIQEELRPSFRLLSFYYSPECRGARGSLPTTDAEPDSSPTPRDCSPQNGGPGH
# UniProt P06239: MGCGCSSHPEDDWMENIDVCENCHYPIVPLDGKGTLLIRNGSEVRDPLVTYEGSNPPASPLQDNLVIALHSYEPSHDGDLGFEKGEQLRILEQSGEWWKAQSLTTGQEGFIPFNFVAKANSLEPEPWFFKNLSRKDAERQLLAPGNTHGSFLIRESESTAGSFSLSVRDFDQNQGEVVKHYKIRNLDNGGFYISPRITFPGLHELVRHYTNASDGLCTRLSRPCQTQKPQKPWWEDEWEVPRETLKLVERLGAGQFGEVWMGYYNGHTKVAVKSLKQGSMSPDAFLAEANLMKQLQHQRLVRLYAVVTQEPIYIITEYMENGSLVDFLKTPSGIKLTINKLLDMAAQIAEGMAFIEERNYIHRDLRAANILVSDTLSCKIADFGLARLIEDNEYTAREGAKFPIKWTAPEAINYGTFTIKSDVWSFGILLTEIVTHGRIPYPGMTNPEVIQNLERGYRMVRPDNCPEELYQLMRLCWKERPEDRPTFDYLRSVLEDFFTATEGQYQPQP
# UniProt P07948: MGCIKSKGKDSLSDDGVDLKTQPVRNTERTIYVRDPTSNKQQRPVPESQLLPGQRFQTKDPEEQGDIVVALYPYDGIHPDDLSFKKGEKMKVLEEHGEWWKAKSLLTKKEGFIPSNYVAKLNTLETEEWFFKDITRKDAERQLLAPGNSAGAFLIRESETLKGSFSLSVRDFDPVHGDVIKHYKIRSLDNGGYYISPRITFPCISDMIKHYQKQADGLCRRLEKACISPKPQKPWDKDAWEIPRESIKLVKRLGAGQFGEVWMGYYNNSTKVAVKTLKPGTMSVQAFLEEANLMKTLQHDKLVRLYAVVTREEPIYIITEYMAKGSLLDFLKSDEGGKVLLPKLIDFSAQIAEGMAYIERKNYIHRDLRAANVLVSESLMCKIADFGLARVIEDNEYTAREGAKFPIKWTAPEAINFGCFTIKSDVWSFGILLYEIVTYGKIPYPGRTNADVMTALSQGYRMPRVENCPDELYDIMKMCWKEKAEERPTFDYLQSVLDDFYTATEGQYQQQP
# UniProt Q12851: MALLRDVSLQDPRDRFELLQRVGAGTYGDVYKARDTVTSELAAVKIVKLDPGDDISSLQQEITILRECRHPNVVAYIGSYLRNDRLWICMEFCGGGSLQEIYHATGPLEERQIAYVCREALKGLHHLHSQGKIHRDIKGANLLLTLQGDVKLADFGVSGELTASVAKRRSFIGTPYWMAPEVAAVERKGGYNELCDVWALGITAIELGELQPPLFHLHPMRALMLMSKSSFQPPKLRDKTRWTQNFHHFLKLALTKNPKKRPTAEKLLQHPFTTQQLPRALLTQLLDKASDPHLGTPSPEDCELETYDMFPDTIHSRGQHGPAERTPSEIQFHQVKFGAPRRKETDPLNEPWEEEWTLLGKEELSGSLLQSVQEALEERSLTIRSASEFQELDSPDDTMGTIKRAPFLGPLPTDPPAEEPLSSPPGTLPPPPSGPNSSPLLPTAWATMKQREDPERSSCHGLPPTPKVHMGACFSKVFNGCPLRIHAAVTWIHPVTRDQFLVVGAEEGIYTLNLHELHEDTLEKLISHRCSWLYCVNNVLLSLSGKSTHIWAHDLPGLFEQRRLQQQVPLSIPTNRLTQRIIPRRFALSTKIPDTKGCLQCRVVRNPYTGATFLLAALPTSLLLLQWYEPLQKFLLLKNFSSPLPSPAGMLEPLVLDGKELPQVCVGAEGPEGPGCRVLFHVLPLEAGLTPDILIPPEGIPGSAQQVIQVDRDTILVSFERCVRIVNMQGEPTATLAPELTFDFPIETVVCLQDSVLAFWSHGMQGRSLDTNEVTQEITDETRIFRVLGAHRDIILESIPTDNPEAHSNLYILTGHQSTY
# UniProt P28482, whole entry: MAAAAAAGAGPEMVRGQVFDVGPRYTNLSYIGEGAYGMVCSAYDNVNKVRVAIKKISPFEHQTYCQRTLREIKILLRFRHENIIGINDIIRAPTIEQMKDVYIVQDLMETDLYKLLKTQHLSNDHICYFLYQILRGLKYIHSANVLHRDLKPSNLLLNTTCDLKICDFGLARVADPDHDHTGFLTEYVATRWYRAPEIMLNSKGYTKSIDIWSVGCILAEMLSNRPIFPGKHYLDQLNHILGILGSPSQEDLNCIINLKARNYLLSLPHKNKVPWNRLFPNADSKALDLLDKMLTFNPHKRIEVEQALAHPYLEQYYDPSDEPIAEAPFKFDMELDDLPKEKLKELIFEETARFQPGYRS
# UniProt P31152, whole entry: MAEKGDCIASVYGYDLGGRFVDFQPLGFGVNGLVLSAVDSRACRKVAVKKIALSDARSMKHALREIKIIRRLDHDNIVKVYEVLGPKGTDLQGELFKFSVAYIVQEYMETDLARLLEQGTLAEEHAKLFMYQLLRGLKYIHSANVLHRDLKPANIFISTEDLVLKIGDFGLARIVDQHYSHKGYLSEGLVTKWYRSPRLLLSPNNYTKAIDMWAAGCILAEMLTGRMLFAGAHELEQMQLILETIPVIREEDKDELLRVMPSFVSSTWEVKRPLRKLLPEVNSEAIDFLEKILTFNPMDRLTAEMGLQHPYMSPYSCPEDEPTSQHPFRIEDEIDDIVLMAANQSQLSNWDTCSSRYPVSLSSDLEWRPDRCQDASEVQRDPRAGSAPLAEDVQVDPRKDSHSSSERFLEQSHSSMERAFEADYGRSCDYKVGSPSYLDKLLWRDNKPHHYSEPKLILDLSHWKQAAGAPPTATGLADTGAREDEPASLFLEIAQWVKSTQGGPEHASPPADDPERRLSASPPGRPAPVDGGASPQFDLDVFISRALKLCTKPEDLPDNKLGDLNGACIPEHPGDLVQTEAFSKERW
# UniProt P49137, whole entry, looked up: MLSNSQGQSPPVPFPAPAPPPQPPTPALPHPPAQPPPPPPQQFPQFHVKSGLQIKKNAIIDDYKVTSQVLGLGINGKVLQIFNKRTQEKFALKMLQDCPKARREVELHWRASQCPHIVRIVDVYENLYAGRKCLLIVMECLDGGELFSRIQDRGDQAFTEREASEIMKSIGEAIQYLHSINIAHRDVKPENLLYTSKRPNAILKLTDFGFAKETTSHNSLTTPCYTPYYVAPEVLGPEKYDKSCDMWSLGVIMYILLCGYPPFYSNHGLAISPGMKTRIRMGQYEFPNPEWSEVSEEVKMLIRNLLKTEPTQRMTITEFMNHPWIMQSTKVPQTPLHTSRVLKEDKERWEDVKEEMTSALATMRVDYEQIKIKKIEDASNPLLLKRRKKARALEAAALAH
# UniProt Q9BUB5: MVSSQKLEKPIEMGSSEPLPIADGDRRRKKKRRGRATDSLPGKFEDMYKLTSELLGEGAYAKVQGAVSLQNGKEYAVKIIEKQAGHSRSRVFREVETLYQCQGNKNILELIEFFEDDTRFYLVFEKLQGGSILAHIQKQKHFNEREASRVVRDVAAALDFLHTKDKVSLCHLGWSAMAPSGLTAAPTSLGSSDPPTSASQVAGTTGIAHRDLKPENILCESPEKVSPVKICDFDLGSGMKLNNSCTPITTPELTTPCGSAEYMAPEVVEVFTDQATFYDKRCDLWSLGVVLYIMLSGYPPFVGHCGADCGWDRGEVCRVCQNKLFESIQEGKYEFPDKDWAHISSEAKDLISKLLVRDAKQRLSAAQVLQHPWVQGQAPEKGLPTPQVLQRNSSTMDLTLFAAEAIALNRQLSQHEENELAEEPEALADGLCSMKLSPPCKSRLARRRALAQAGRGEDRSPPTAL
# UniProt Q16620, whole entry, looked up: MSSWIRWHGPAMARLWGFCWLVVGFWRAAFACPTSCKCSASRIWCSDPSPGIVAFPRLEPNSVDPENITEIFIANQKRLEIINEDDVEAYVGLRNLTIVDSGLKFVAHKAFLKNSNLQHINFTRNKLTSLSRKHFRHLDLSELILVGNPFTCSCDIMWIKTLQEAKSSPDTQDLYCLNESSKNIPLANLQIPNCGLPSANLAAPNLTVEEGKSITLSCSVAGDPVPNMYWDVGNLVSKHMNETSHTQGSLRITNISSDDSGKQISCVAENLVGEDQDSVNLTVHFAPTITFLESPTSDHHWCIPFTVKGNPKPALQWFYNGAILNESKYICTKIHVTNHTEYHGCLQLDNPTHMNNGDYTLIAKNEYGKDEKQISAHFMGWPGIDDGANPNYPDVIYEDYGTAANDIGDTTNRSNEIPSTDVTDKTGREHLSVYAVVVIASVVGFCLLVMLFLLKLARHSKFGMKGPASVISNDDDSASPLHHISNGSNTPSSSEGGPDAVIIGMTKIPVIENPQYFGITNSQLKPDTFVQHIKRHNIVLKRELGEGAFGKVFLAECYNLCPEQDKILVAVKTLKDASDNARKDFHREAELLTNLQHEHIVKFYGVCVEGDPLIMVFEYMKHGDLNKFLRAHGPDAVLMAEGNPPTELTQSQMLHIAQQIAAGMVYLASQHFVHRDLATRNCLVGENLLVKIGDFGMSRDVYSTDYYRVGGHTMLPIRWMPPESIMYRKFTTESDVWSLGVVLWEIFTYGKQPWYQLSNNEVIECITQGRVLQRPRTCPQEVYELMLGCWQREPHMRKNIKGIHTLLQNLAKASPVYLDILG
# The other results are listed elsewhere or left out. The calls rarely recur for the same compound in another form.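 In K562 cells expressing nanoluciferase-fused kinases, luminescence was recorded at 4 h intervals between 2 and 18 h, normalized as percent of control with DMSO at 100% and a positive control at 0%. A significant (2 sigma) signal drop marks a time point as decreased. The authors' rule for a hit is not shown and takes in more than the number of time points.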
# Columns and labels:
# Assay in all cases: number of time points (of 5) at which kinase-Nluc abundance scored as decreased, DMSO-normalised (count); higher = more persistent destabilization
# Conditions in all cases: K562; 2-18 h
# FLT3 = FLT3 (UniProt P36888)
# FYN = FYN (UniProt P06241)
# GSK3A = GSK3A (UniProt P49840)
# HER2 = HER2 (UniProt P04626)
# INSRR = INSRR (UniProt P14616)
# IRAK3 = IRAK3 (UniProt Q9Y616)
# JAK1 = JAK1 (UniProt P23458)
# LCK = LCK (UniProt P06239)
# LIMK1 = LIMK1 (UniProt P53667)
# LIMK2 = LIMK2 (UniProt P53671)
# LMTK2 = LMTK2 (UniProt Q8IWU2)
# LYN = LYN (UniProt P07948)
# MAP2K1 = MAP2K1 (UniProt Q02750)
# MAP2K2 = MAP2K2 (UniProt P36507)
# MAP4K2 = MAP4K2 (UniProt Q12851)
# MAPK1 = MAPK1 (UniProt P28482)
# MAPK4 = MAPK4 (UniProt P31152)
# MAPKAPK2 = MAPKAPK2 (UniProt P49137)
# MKNK1 = MKNK1 (UniProt Q9BUB5)
# NTRK2 = NTRK2 (UniProt Q16620)
SMILES,number of time points (FLT3),number of time points (FYN),number of time points (GSK3A),number of time points (HER2),number of time points (INSRR),number of time points (IRAK3),number of time points (JAK1),number of time points (LCK),number of time points (LIMK1),number of time points (LIMK2),number of time points (LMTK2),number of time points (LYN),number of time points (MAP2K1),number of time points (MAP2K2),number of time points (MAP4K2),number of time points (MAPK1),number of time points (MAPK4),number of time points (MAPKAPK2),number of time points (MKNK1),number of time points (NTRK2)
CNCCOc1ccccc1C(C)(C)Nc1nccn(-c2cc(C(=O)NC3CC3)ccc2C)c1=O [p38α inhibitor 2] (10 µM),0,0,0,0,0,0,0,0,0,0,0,0,0,0,0,0,0,0,0,0
OCCC#Cc1nc(-c2ccc(F)cc2)c(-c2ccncc2)n1CCCc1ccccc1 (2.5 µM),0,0,0,0,0,0,0,0,0,0,0,0,0,0,0,0,0,0,0,0
CN(C)CCCNc1ccn2ncc(-c3ccc4c(c3)OCO4)c2n1 (10 µM),0,0,0,0,0,0,0,0,0,0,0,0,0,0,0,0,0,0,0,0
COc1ccc(S(=O)(=O)N(CCO)c2ccccc2CN(C)CC=Cc2ccc(Cl)cc2)cc1 (2.5 µM),0,0,0,0,0,0,0,0,0,1,0,0,0,0,0,0,0,0,0,0
Cc1cc(=O)[nH]c(=S)[nH]1 [Methylthiouracil] (10 µM),0,0,0,0,0,0,0,0,0,0,0,0,0,0,0,0,0,0,0,0
CC[C@H](C)[C@H](NC(=O)[C@H](CCCCN)NC(=O)[C@H](CC(C)C)NC(=O)[C@@H]1CCCN1C(=O)[C@H](CCC(=O)O)NC(=O)[C@H](Cc1ccc(O)cc1)NC(=O)[C@@H](NC(=O)[C@H](CO)NC(=O)CNC(=O)[C@H](CO)NC(=O)[C@H](CCCN=C(N)N)NC(=O)[C@H](CCCCN)NC(=O)[C@@H](NC(=O)[C@@H](N)CCCN=C(N)N)[C@@H](C)O)C(C)C)C(=O)O [Malantide] (10 µM),0,0,0,0,0,0,0,0,0,0,0,0,0,0,0,0,0,0,0,0
CCn1c2ccccc2c2cc(Nc3ccnc(NCCCN4CCOCC4)n3)ccc21 (2.5 µM),0,0,0,0,0,0,0,0,0,0,0,0,0,0,0,0,0,0,0,0
Cc1ccc(-c2csc(Cn3nc(CC4OCCCO4)c4ccccc4c3=O)n2)cc1 (10 µM),0,0,0,0,0,0,0,0,0,1,0,0,0,0,0,0,0,0,0,0
Cc1occ2c1C(=O)c1c(O)ccc(O)c1C2 (2.5 µM),0,0,0,0,0,0,0,0,0,0,0,0,0,0,0,0,0,0,0,0
Cc1cc(Nc2ncc(Cl)c(Nc3ccccc3S(=O)(=O)C(C)C)n2)c(OC(C)C)cc1C1CCN(CC(=O)NCCNc2cccc3c2C(=O)N(C2CCC(=O)NC2=O)C3=O)CC1 (stereo not given) (10 µM),0,0,0,0,0,0,0,0,0,0,0,0,0,0,0,0,0,0,0,0
O=c1sn(-c2cccc3ccccc23)c(=O)n1Cc1ccccc1 [Tideglusib] (10 µM),0,0,0,0,0,0,0,0,0,0,0,0,0,0,0,0,0,0,0,0
O=C1C(=Cc2ccc(O)c(O)c2)Oc2ccccc21 (2.5 µM),0,0,0,0,0,0,0,0,0,0,0,0,0,0,0,0,0,0,0,0
O=C(Nc1cc(Cl)cc(Cl)c1)Nc1cc(Cl)cc(Cl)c1 (10 µM),0,0,0,0,0,0,0,0,0,0,0,0,0,0,0,0,0,0,0,0
C=CC(=O)Nc1cccc(Oc2nc(Nc3ccc(N4CCN(C)CC4)cc3)ncc2Cl)c1 (2.5 µM),0,0,0,4,0,0,0,0,0,0,0,0,0,0,0,0,0,0,0,0
COc1cccc2cc(-c3nc([C@H]4CC[C@H](C(=O)O)CC4)n4ncnc(N)c34)[nH]c12 (2.5 µM),2,0,0,0,3,3,0,0,3,3,0,0,0,0,0,0,0,0,0,3
CC(C)(O)c1cc(Nc2cc(Oc3cn(C4CC4)nc3C3CCOCC3)ccn2)ccn1 (10 µM),0,0,0,0,0,0,0,0,0,0,0,0,0,0,0,0,0,0,0,0
C[C@H](CC[C@@H](O)C(C)(C)O)[C@H]1CC[C@@]2(C)[C@@H]3CC=C4[C@@H](CC[C@H](O)C4(C)C)[C@]3(C)[C@H](O)C[C@]12C [Mogrol] (10 µM),0,0,0,0,0,0,0,0,0,0,0,0,0,0,0,0,0,0,0,0
Nc1n[nH]c(N)c1N=Nc1ccc(O)cc1 (10 µM),0,0,0,0,0,0,0,0,0,0,0,0,0,0,0,0,0,0,0,0
C=C[C@H]1[C@H](O[C@@H]2O[C@H](CO)[C@@H](O)[C@H](O)[C@H]2O)OC=C(C(=O)OC)[C@H]1CCOC(=O)c1cc(O)c(O)c(O)c1 [Cornuside] (10 µM),0,0,0,0,0,0,0,0,0,0,0,0,0,0,0,0,0,0,0,0
CCc1ccc(NC(=O)Nc2ccccc2)cc1 (10 µM),0,0,0,0,0,0,0,0,0,0,1,0,0,0,0,0,0,0,1,0
CC(C)(C)c1ccc(C(=O)Nc2cn3cc(-n4ccnc4)ccc3n2)cc1 (10 µM),0,0,0,0,0,0,0,0,2,0,0,0,0,0,0,0,0,0,0,0
COc1ccc2c(c1)C[C@H](C(=O)Nc1ccc(-c3cn[nH]c3)cc1OCCN(C)C)CO2 [Chroman 1] (10 µM),0,0,0,0,0,0,0,0,0,0,0,0,0,0,0,0,0,0,0,0
Cc1cccc(-c2[nH]c(C(C)(C)C)nc2-c2ccc3c(c2)OCO3)n1 (2.5 µM),0,0,0,0,0,0,0,0,0,0,0,0,0,0,0,0,0,0,0,0
C=CC(=O)Nc1cccc(Nc2nc(Nc3ccc(Oc4ccnc(C(=O)NC)c4)cc3)ncc2F)c1 (2.5 µM),0,0,0,0,0,0,0,0,0,0,1,0,0,0,0,0,0,0,1,0
COc1ccc(COc2cc3oc(=O)c4cc(C(C)O)ccc4c3cc2OC)cc1 (stereo not given) [Palomid 529] (2.5 µM),0,0,0,0,0,0,0,0,0,0,0,0,0,0,0,0,0,0,0,0
